Results deposited as PubChem BioAssay AID1259405 (NCATS, 2018).
This is an unselected part of about 50,000 deposited reagents. Over the whole deposit, about 4,000 (8%) were called active. 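Mouse siRNA library applied to hamster cells; one well for each siRNA.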 Unmarked entries are inactive.

- Purpose: 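Knock-downs that lift recombinant protein yield in hamster ovary cells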 (primary screen)
- System: Chinese hamster CHO-K1 ovary cells with stable secreted eGFP expression
- Knock-down reagent: single siRNA against mouse genes, 0.8 pmol siRNA per well (2 µl of 400 nM stock)
- Time to read-out: 3 days
- Read-out: 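Percent of the per-plate non-targeting control median for intracellular GFP per well by laser scanning cytometry and for cell viability by ATP luminescence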
- Direction: GFP, % of control: higher = more GFP per well, higher productivity; viability (ATP), % of control: higher = more viable cells (more ATP)
- Hit rule: 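Called active when intracellular GFP, relative to negative control, is at or above 120%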

The first 2 entries, ahead of the listing:
Target gene	PubChem SID	GFP, % of control	viability (ATP), % of control
Frg2f1	SID363562312	64.4	44.3
Frg2f1	SID363567450	147 (active)	129

Results, from the start:
Target gene	PubChem SID	GFP, % of control	viability (ATP), % of control
Frg2f1	SID363562312	64.4	44.3
Frg2f1	SID363567450	147 (active)	129
Frg2f1	SID363584807	36	56.9
Or4d5	SID363554496	19.5	24.5
Or4d5	SID363567943	39.5	24.8
Or4d5	SID363586002	80.5	47.5
Adgrg6	SID363544115	125 (active)	80.4
Adgrg6	SID363550443	104	93.2
Adgrg6	SID363556992	185 (active)	107
Pde5a	SID363569811	91.3	74.9
Pde5a	SID363576851	76.1	52.7
Pde5a	SID363578259	61.6	74.5
Aldoa	SID363556621	155 (active)	52.5
Aldoa	SID363563525	119	54.1
Aldoa	SID363587071	87.3	87
Tbl2	SID363556300	69.5	76.9
Tbl2	SID363586750	89.3	103
Tbl2	SID363588858	124 (active)	123
Nlrc4	SID363572959	65.1	66.7
Nlrc4	SID363577535	77.6	51.8
Nlrc4	SID363581055	72.8	68.1
Slc7a9	SID363574947	51.9	56.6
Slc7a9	SID363580579	95.6	72.7
Slc7a9	SID363582691	78.2	83.8
Tm4sf5	SID363556285	63.6	51.8
Tm4sf5	SID363586735	54.3	72.4
Tm4sf5	SID363588843	54.6	78.1
Prdm5	SID363573657	129 (active)	91.1
Prdm5	SID363581401	88.5	96.5
Prdm5	SID363583865	87.7	122
Trim6	SID363541658	73.3	75.9
Trim6	SID363553250	57.9	40.7
Trim6	SID363566574	56.1	52.2
Zfp335	SID363572366	103	72.9
Zfp335	SID363574126	63.1	59.1
Exosc10	SID363540148	63.2	78.8
Exosc10	SID363561449	62.6	79.5
Exosc10	SID363564485	70.5	61.9
Ap2b1	SID363553848	84.5	39.3
Ap2b1	SID363561805	52.5	61.5
Ap2b1	SID363565543	70.8	75.5
Marcks	SID363572367	88.1	55.1
Marcks	SID363574127	79.7	62.1
Hddc3	SID363547812	68	66.4
Hddc3	SID363558581	63	78
Hddc3	SID363560339	106	59.4
Sanbr	SID363540809	70.5	84
Sanbr	SID363543260	69.7	98.1
Sanbr	SID363552753	103	81.8
Tfb2m	SID363568970	138 (active)	89.8
Tfb2m	SID363583402	64	77.3
Col8a2	SID363553731	66.6	70.4
Col8a2	SID363561688	39.8	46.7
Col8a2	SID363565426	66.4	71
Tex261	SID363556471	64.7	91.7
Tex261	SID363586921	77.7	131
Tex261	SID363589029	183 (active)	138
